Tests used:
[1] = Radiation dosimetry, mouse organs/tissues and PC-3 tumor xenografts (OLINDA); type: in vivo; conditions: for Radiation absorbed dose, PC-3 tumor (1 g): Unit Density Sphere Model
[2] = Radiation dosimetry extrapolated to adult human male (OLINDA, ICRP 89); type: in vivo; conditions: for Effective dose: whole-body, per injected radioactivity; for Estimated radiation absorbed dose, Adrenals / Estimated radiation absorbed dose, Brain / Estimated radiation absorbed dose, Esophagus / Estimated radiation absorbed dose, Eyes / Estimated radiation absorbed dose, Gallbladder wall / Estimated radiation absorbed dose, Heart / Estimated radiation absorbed dose, Kidneys / Estimated radiation absorbed dose, Left colon / Estimated radiation absorbed dose, Liver / Estimated radiation absorbed dose, Lungs / Estimated radiation absorbed dose, Pancreas / Estimated radiation absorbed dose, Prostate / Estimated radiation absorbed dose, Rectum / Estimated radiation absorbed dose, Red marrow / Estimated radiation absorbed dose, Right colon / Estimated radiation absorbed dose, Salivary glands / Estimated radiation absorbed dose, Skeleton / Estimated radiation absorbed dose, Small intestine / Estimated radiation absorbed dose, Spleen / Estimated radiation absorbed dose, Stomach wall / Estimated radiation absorbed dose, Testes / Estimated radiation absorbed dose, Thymus / Estimated radiation absorbed dose, Thyroid / Estimated radiation absorbed dose, Total body / Estimated radiation absorbed dose, Urinary bladder: with tumor sink effect correction
[3] = mouse, with tumor sink effect correction
[4] = mouse, without tumor sink effect correction

CC(C)C[C@H](NC(=O)[C@H](Cc1cnc[nH]1)N(C)C(=O)CNC(=O)[C@@H](NC(=O)[C@H](C)NC(=O)[C@H](Cc1c[nH]c2ccccc12)NC(=O)[C@H](CCC(N)=O)NC(=O)[C@@H](Cc1ccccc1)NC(=O)CN1CCC(NC(=O)CN2CCN(CC(=O)O)CCN(CC(=O)O)CCN(CC(=O)O)CC2)CC1)C(C)(C)C)C(=O)N1CC(F)(F)C[C@H]1C(N)=O [[^177Lu]Lu-LW02060] [metal not drawn]
tumor absorbed dose relative to [177Lu]Lu-LW02080 ([1]; 1-g PC-3 tumor xenograft): 5.8 times
tumor absorbed dose relative to [177Lu]Lu-ProBOMB5 ([1]; 1-g PC-3 tumor xenograft): 4.7 time
Radiation absorbed dose, PC-3 tumor (1 g) ([1]; 1-g PC-3 tumor xenograft): 272 mGy/MBq
pancreas absorbed dose relative to [177Lu]Lu-LW02080 ([1]; mouse): around 23 times
Radiation absorbed dose, Bladder [1, 3]: 1510 mGy/MBq
Radiation absorbed dose, Brain [1, 3]: 2.39 mGy/MBq
Radiation absorbed dose, Heart [1, 3]: 6.10 mGy/MBq
Radiation absorbed dose, Kidneys [1, 3]: 148 mGy/MBq
Radiation absorbed dose, Large intestine [1, 3]: 62.9 mGy/MBq
Radiation absorbed dose, Liver [1, 3]: 31.2 mGy/MBq
Radiation absorbed dose, Lungs [1, 3]: 13.0 mGy/MBq
Radiation absorbed dose, Pancreas [1, 3]: 118 mGy/MBq
Radiation absorbed dose, Skeleton [1, 3]: 7.96 mGy/MBq
Radiation absorbed dose, Small intestine [1, 3]: 19.5 mGy/MBq
Radiation absorbed dose, Spleen [1, 3]: 24.2 mGy/MBq
Radiation absorbed dose, Stomach wall [1, 3]: 27.5 mGy/MBq
Radiation absorbed dose, Testes [1, 3]: 7.95 mGy/MBq
Radiation absorbed dose, Thyroid [1, 3]: 1.79 mGy/MBq
Radiation absorbed dose, Total body [1, 3]: 18.0 mGy/MBq
Radiation absorbed dose, Bladder [1, 4]: 734 mGy/MBq
Radiation absorbed dose, Brain [1, 4]: 1.16 mGy/MBq
Radiation absorbed dose, Heart [1, 4]: 2.96 mGy/MBq
Radiation absorbed dose, Kidneys [1, 4]: 72.1 mGy/MBq
Radiation absorbed dose, Large intestine [1, 4]: 30.6 mGy/MBq
Radiation absorbed dose, Liver [1, 4]: 15.2 mGy/MBq
Radiation absorbed dose, Lungs [1, 4]: 6.31 mGy/MBq
Radiation absorbed dose, Pancreas [1, 4]: 57.3 mGy/MBq
Radiation absorbed dose, Skeleton [1, 4]: 3.87 mGy/MBq
Radiation absorbed dose, Small intestine [1, 4]: 9.49 mGy/MBq
Radiation absorbed dose, Spleen [1, 4]: 11.8 mGy/MBq
Radiation absorbed dose, Stomach wall [1, 4]: 13.4 mGy/MBq
Radiation absorbed dose, Testes [1, 4]: 3.86 mGy/MBq
Radiation absorbed dose, Thyroid [1, 4]: 0.869 mGy/MBq
Radiation absorbed dose, Total body [1, 4]: 8.77 mGy/MBq
estimated pancreas absorbed dose relative to [177Lu]Lu-LW02080 [2]: around 30 times
Effective dose [2]: 1.16 × 10^−2 mSv/MBq
Estimated radiation absorbed dose, Adrenals [2]: 2.45 × 10^−2 mGy/MBq
Estimated radiation absorbed dose, Brain [2]: 2.85 × 10^−4 mGy/MBq
Estimated radiation absorbed dose, Esophagus [2]: 8.10 × 10^−4 mGy/MBq
Estimated radiation absorbed dose, Eyes [2]: 5.72 × 10^−4 mGy/MBq
Estimated radiation absorbed dose, Gallbladder wall [2]: 1.20 × 10^−3 mGy/MBq
Estimated radiation absorbed dose, Heart [2]: 2.66 × 10^−3 mGy/MBq
Estimated radiation absorbed dose, Kidneys [2]: 6.36 × 10^−2 mGy/MBq
Estimated radiation absorbed dose, Left colon [2]: 2.59 × 10^−2 mGy/MBq
Estimated radiation absorbed dose, Liver [2]: 1.29 × 10^−2 mGy/MBq
Estimated radiation absorbed dose, Lungs [2]: 5.31 × 10^−3 mGy/MBq
Estimated radiation absorbed dose, Pancreas [2]: 5.08 × 10^−2 mGy/MBq
Estimated radiation absorbed dose, Prostate [2]: 1.64 × 10^−3 mGy/MBq
Estimated radiation absorbed dose, Rectum [2]: 1.30 × 10^−2 mGy/MBq
Estimated radiation absorbed dose, Red marrow [2]: 7.68 × 10^−4 mGy/MBq
Estimated radiation absorbed dose, Right colon [2]: 1.35 × 10^−2 mGy/MBq
Estimated radiation absorbed dose, Salivary glands [2]: 5.91 × 10^−4 mGy/MBq
Estimated radiation absorbed dose, Skeleton [2]: 1.04 × 10^−3 mGy/MBq
Estimated radiation absorbed dose, Small intestine [2]: 7.60 × 10^−3 mGy/MBq
Estimated radiation absorbed dose, Spleen [2]: 9.47 × 10^−3 mGy/MBq
Estimated radiation absorbed dose, Stomach wall [2]: 3.70 × 10^−3 mGy/MBq
Estimated radiation absorbed dose, Testes [2]: 2.49 × 10^−3 mGy/MBq
Estimated radiation absorbed dose, Thymus [2]: 6.92 × 10^−4 mGy/MBq
Estimated radiation absorbed dose, Thyroid [2]: 6.38 × 10^−4 mGy/MBq
Estimated radiation absorbed dose, Total body [2]: 2.55 × 10^−3 mGy/MBq
Estimated radiation absorbed dose, Urinary bladder [2]: 1.50 × 10^−1 mGy/MBq

CC(C)C[C@@H](CN1CC(F)(F)C[C@H]1C(N)=O)NC(=O)[C@H](Cc1c[nH]cn1)NC(=O)CN(C)C(=O)[C@@H](NC(=O)[C@H](C)NC(=O)[C@H](Cc1c[nH]c2ccccc12)NC(=O)[C@H](CCC(N)=O)NC(=O)[C@@H](Cc1ccccc1)NC(=O)CN1CCC(NC(=O)CN2CCN(CC(=O)O)CCN(CC(=O)O)CCN(CC(=O)O)CC2)CC1)C(C)C [[^177Lu]Lu-LW02080] [metal not drawn]
Radiation absorbed dose, PC-3 tumor (1 g) ([1]; 1-g PC-3 tumor xenograft): 47.0 mGy/MBq
Radiation absorbed dose, Bladder [1, 3]: 655 mGy/MBq
Radiation absorbed dose, Brain [1, 3]: 1.01 mGy/MBq
Radiation absorbed dose, Heart [1, 3]: 2.66 mGy/MBq
Radiation absorbed dose, Kidneys [1, 3]: 64.4 mGy/MBq
Radiation absorbed dose, Large intestine [1, 3]: 13.6 mGy/MBq
Radiation absorbed dose, Liver [1, 3]: 7.92 mGy/MBq
Radiation absorbed dose, Lungs [1, 3]: 5.21 mGy/MBq
Radiation absorbed dose, Pancreas [1, 3]: 5.03 mGy/MBq
Radiation absorbed dose, Skeleton [1, 3]: 5.77 mGy/MBq
Radiation absorbed dose, Small intestine [1, 3]: 10.2 mGy/MBq
Radiation absorbed dose, Spleen [1, 3]: 7.29 mGy/MBq
Radiation absorbed dose, Stomach wall [1, 3]: 10.2 mGy/MBq
Radiation absorbed dose, Testes [1, 3]: 3.38 mGy/MBq
Radiation absorbed dose, Thyroid [1, 3]: 0.781 mGy/MBq
Radiation absorbed dose, Total body [1, 3]: 6.71 mGy/MBq
Radiation absorbed dose, Bladder [1, 4]: 499 mGy/MBq
Radiation absorbed dose, Brain [1, 4]: 0.77 mGy/MBq
Radiation absorbed dose, Heart [1, 4]: 2.02 mGy/MBq
Radiation absorbed dose, Kidneys [1, 4]: 49.0 mGy/MBq
Radiation absorbed dose, Large intestine [1, 4]: 10.4 mGy/MBq
Radiation absorbed dose, Liver [1, 4]: 6.03 mGy/MBq
Radiation absorbed dose, Lungs [1, 4]: 3.96 mGy/MBq
Radiation absorbed dose, Pancreas [1, 4]: 3.83 mGy/MBq
Radiation absorbed dose, Skeleton [1, 4]: 4.39 mGy/MBq
Radiation absorbed dose, Small intestine [1, 4]: 7.74 mGy/MBq
Radiation absorbed dose, Spleen [1, 4]: 5.55 mGy/MBq
Radiation absorbed dose, Stomach wall [1, 4]: 7.79 mGy/MBq
Radiation absorbed dose, Testes [1, 4]: 2.57 mGy/MBq
Radiation absorbed dose, Thyroid [1, 4]: 0.594 mGy/MBq
Radiation absorbed dose, Total body [1, 4]: 5.11 mGy/MBq
Effective dose [2]: 4.15 × 10^−3 mSv/MBq
Estimated radiation absorbed dose, Adrenals [2]: 4.24 × 10^−3 mGy/MBq
Estimated radiation absorbed dose, Brain [2]: 1.04 × 10^−4 mGy/MBq
Estimated radiation absorbed dose, Esophagus [2]: 3.14 × 10^−4 mGy/MBq
Estimated radiation absorbed dose, Eyes [2]: 2.45 × 10^−4 mGy/MBq
Estimated radiation absorbed dose, Gallbladder wall [2]: 4.15 × 10^−4 mGy/MBq
Estimated radiation absorbed dose, Heart [2]: 1.17 × 10^−3 mGy/MBq
Estimated radiation absorbed dose, Kidneys [2]: 2.78 × 10^−2 mGy/MBq
Estimated radiation absorbed dose, Left colon [2]: 5.58 × 10^−3 mGy/MBq
Estimated radiation absorbed dose, Liver [2]: 3.17 × 10^−3 mGy/MBq
Estimated radiation absorbed dose, Lungs [2]: 2.11 × 10^−3 mGy/MBq
Estimated radiation absorbed dose, Pancreas [2]: 1.69 × 10^−3 mGy/MBq
Estimated radiation absorbed dose, Prostate [2]: 6.94 × 10^−4 mGy/MBq
Estimated radiation absorbed dose, Rectum [2]: 3.00 × 10^−3 mGy/MBq
Estimated radiation absorbed dose, Red marrow [2]: 3.23 × 10^−4 mGy/MBq
Estimated radiation absorbed dose, Right colon [2]: 2.98 × 10^−3 mGy/MBq
Estimated radiation absorbed dose, Salivary glands [2]: 2.52 × 10^−4 mGy/MBq
Estimated radiation absorbed dose, Skeleton [2]: 4.73 × 10^−4 mGy/MBq
Estimated radiation absorbed dose, Small intestine [2]: 3.97 × 10^−3 mGy/MBq
Estimated radiation absorbed dose, Spleen [2]: 2.92 × 10^−3 mGy/MBq
Estimated radiation absorbed dose, Stomach wall [2]: 1.45 × 10^−3 mGy/MBq
Estimated radiation absorbed dose, Testes [2]: 1.05 × 10^−3 mGy/MBq
Estimated radiation absorbed dose, Thymus [2]: 2.85 × 10^−4 mGy/MBq
Estimated radiation absorbed dose, Thyroid [2]: 2.68 × 10^−4 mGy/MBq
Estimated radiation absorbed dose, Total body [2]: 9.77 × 10^−4 mGy/MBq
Estimated radiation absorbed dose, Urinary bladder [2]: 6.51 × 10^−2 mGy/MBq

From PMC11859184 (Pharmaceuticals, 2025)
